Data as given in PubChem BioAssay AID1224830 (NIAID, 2016).
The deposit covers about 18,000 reagents; this is a random part of them. Of all reagents, about 2,900 (16%) were called active. 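Calls are made per well; low scores hint the gene aids the LPS response, high scores that it dampens it.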 Unmarked entries are inactive. Repeated entries: four replicate wells of each siRNA pool. No sequences are given here.

Screen: 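Regulators of TLR4 signalling towards TNF-alpha in macrophage-like cells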 (primary screen)
Cell system: human THP-1 monocytic leukaemia cells, TNF dual-luciferase reporter clone, PMA-differentiated to macrophage-like cells
Reagents: siRNA pool against human genes, 50 nM
Timing: LPS for 4 h, given about 3 days after siRNA transfection
Conditions: bacterial LPS (TLR4 ligand), 10 ng/ml
Read-out: 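TNF firefly reporter luminescence divided by renilla, normalised to the plate median, then turned into a robust z-score for each replicate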
Direction: TNF reporter robust z-score: higher = stronger TNF reporter response to LPS
Call rule: 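Each well counts as active if its z-score is over 2.8 or under -1.5; controls are left without a call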

Gene | TNF reporter robust z-score
CGB8 | 0.19
CGB8 | 0.49
CGB8 | -1.22
CGB8 | -0.56
POLL | 0.87
POLL | 2.07
POLL | 5.13 (active)
POLL | -0.28
TVP23C | -1.35
TVP23C | -1.27
TVP23C | -1.16
TVP23C | -1.28
DYNC2I2 | -1.16
DYNC2I2 | -0.02
DYNC2I2 | -1.51 (active)
DYNC2I2 | -0.37
TNK2 | -1.01
TNK2 | 2.89 (active)
TNK2 | 0.81
TNK2 | 1.38
MUC20 | 2.27
MUC20 | 0.06
MUC20 | 0.09
MUC20 | 0.18

In a second layout: results already given.
| Gene | TNF reporter robust z-score |
| --- | --- |
| CGB8 | -0.56 |
| POLL | 0.87 |
| POLL | 2.07 |
| POLL | 5.13 (active) |
| POLL | -0.28 |
| TVP23C | -1.35 |
| TVP23C | -1.27 |
| TVP23C | -1.16 |

Additional entries follow:
Gene | TNF reporter robust z-score
TAF1B | 0.18
TAF1B | 1.44
TAF1B | 0.1
TAF1B | 0.82
EME1 | 1.84
EME1 | 1.47
EME1 | 0.51
EME1 | 0.41
PRICKLE2 | 0.08
PRICKLE2 | 0.7
PRICKLE2 | -0.29
PRICKLE2 | -0.73
CEP350 | -0.4
CEP350 | -0.24
CEP350 | 0.85
CEP350 | -0.15
TEX13B | 1.18
TEX13B | 4.35 (active)
TEX13B | 0.53
TEX13B | 0.48
P2RY10 | -0.05
P2RY10 | 1.24
P2RY10 | 1.05
P2RY10 | 1.51
